Assay results published in PubChem BioAssay AID743255 (National Center for Advancing Translational Sciences (NCATS), 2014).
Screen size: about 390,000 compounds; about 910 (0.23%) were called active. The inconclusive results got no clear call from the source; some entries with a clear call stand among them for comparison. The call rests on the fitted dose curve; in most records, active means well fitted inhibition curve with a large enough effect; inconclusive means small, poorly fitted or top-dose-only effect; inactive means no such curve, though single readings can be large or run the other way. Potencies of inconclusive entries are doubtful fits and often do not repeat.

Protein sequences, listed by entry. Tags and fused reporters are not part of them. Lines headed by an entry give the natural chain unless they say otherwise; changes in a name come on top.
UniProt O94782: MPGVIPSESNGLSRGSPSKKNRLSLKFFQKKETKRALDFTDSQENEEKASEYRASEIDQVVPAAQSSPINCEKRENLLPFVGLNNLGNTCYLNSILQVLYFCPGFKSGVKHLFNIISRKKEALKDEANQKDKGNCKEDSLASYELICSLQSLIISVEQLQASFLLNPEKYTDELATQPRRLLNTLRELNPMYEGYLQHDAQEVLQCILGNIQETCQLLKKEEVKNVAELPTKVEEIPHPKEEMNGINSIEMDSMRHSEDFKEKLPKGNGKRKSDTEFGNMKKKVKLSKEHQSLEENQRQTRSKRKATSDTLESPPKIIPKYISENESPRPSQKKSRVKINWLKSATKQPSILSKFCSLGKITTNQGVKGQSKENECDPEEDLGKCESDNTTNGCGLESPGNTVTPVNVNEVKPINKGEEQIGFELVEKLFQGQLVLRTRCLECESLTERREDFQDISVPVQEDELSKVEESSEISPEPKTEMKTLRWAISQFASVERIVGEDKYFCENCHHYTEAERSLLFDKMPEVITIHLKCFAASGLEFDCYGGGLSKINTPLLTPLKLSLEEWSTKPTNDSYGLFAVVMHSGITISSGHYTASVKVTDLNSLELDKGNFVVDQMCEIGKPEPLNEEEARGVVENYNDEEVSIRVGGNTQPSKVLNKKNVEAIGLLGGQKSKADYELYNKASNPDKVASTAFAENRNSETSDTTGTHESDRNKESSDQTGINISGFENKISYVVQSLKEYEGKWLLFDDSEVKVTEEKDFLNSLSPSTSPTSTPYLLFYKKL

Each compound was assayed against Ubiquitin carboxyl-terminal hydrolase 1 (Homo sapiens) (UniProt O94782) (assay: Inhibitors of USP1/UAF1: Primary Screen). Settings: recombinant USP1/UAF1, Ub-Rhodamine cleavage fluorescence; series mostly up to 57.1 µM.
How it was run: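 High-throughput fluorogenic screen: 1nM USP1/UAF1 complex, Ub-Rho substrate 150nM final, 50mM HEPES pH 7.8 with 0.5mM EDTA, 0.1 mg/ml BSA, 1mM TCEP and 0.01% Tween-20.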
Further: nearly all actives have a fitted effect of over 60% in size.
Potency means the concentration at half of the fitted maximal effect.

Potency, inactive:
O=C(CSc1nnc(Nc2ccccc2)s1)NC1CC1, O=c1oc2ccccc2n1CSc1nc2ccccc2s1, COc1ccc(N2C(=O)c3ccccc3C2=O)cc1, COc1ccc(C2NC(=O)NC3=C2CCc2ccccc23)cc1 (stereo not given), CCOC(=O)c1c(-c2ccccc2)csc1NC(=O)C1CCCO1 (stereo not given), CC(=O)Nc1sc(N/N=C\c2ccc(O)cc2)nc1-c1cccs1, Cc1ccc(C)c(Nc2nnc(-c3ccc(C)c(S(=O)(=O)N4CCN(C)CC4)c3)c3ccccc23)c1, COc1ccc(C(C)NC(=O)C2CCCC2)cc1OC (stereo not given), Cc1cc(C)c(NS(=O)(=O)c2cccc3cccnc23)c(C)c1, Cc1cc(NC(=O)CCCn2cnc([N+](=O)[O-])n2)no1, Cc1cc(C(=O)N/N=C/c2ccc(O)c(O)c2O)c(C)n1-c1ccccc1

Potency, active:
Cc1[nH][nH]c(=O)c1C(c1c(C)[nH][nH]c1=O)c1cn(Cc2ccc(Cl)c(Cl)c2)c2ccccc12 28.2 µM

Potency, inconclusive:
CCN1CCc2c(sc(NC(=O)c3ccc(S(=O)(=O)N(C)C4CCCCC4)cc3)c2C(N)=O)C1 39.8 µM [inhibitor, partial curve], O=C(NCC(c1cccnc1)N1CCc2ccccc2C1)C(=O)Nc1ccccc1F (stereo not given) 8.91 µM [inhibitor, single point], CCCCc1ccc(Nc2cc(C)nc(-n3nc(C)cc3C)n2)cc1 28.2 µM [inhibitor, single point], Cc1[nH][nH]c(=O)c1C(c1ccc(-c2ccccc2C(=O)O)o1)c1c(C)[nH][nH]c1=O 44.7 µM [inhibitor, partial curve, poor fit], COc1ccc(OC)c(/C=N/NC(=O)CSc2cc(C)nc3c(OC)cccc23)c1 31.6 µM [inhibitor, partial curve, poor fit], Cc1ccccc1Nc1nc(Cl)nc(NC(C)(C)C)n1 17.8 µM [inhibitor, partial curve], Cn1c(=O)c2nc(-c3ccccc3)c(-c3ccccc3)nc2n(C)c1=O 50.1 µM [inhibitor, partial curve, poor fit], CN1CCN(C(=O)CN2C(=O)COc3ccc(S(=O)(=O)N4CCOCC4)cc32)CC1 0.126 µM [inhibitor, full curve, poor fit], COC(=O)C1=C(C)NC(=O)NC1c1cn(-c2ccccc2)nc1-c1ccc(OC)c(Br)c1 (stereo not given) 0.126 µM [inhibitor, full curve, poor fit], O=C(COC(=O)/C=C/c1ccc(OC(F)F)cc1)Nc1ccc2[nH]c(=O)[nH]c2c1 7.94 µM [inhibitor, partial curve, poor fit], Cc1ccc(S(=O)(=O)C(CNC(=O)COc2ccccc2)c2cccs2)cc1 (stereo not given) 17.8 µM [inhibitor, partial curve], CCc1sc(Nc2cccc(Cl)c2)nc1-c1cc2cccc(OC)c2oc1=O 35.5 µM [inhibitor, single point], CCOC(=O)N1CCC(N(CCN(C)C)C(=S)Nc2cc(Cl)ccc2C)CC1 89.1 µM [inhibitor, partial curve, poor fit], CCOc1ccc(NC(=O)CSc2nc3c([nH]c4ccccc43)c(=O)n2C)cc1 0.891 µM [inhibitor, full curve, poor fit], CCCCC[n+]1ccn(C2=C([O-])c3ccccc3C(=O)/C2=N\S(=O)(=O)c2ccccc2)c1 28.2 µM [inhibitor, partial curve], Cc1ccc(C2=CC(c3ccccc3C)n3c(nc4ccccc43)N2)cc1 (stereo not given) 0.708 µM [inhibitor, full curve, poor fit], CCOc1ccc(NC(=O)CSc2oc(-c3cccs3)nc2S(=O)(=O)c2ccc(C)cc2)cc1 3.98 µM [inhibitor, single point], Cc1cc(C)c(NC(=O)CSc2n[nH]c(-c3ccccc3Cl)n2)c(C)c1 1.12 µM [inhibitor, full curve], CCn1c(CNC(=O)c2ccccc2)nc2ccccc21 2.82 µM [inhibitor, partial curve], Cn1cnc(S(=O)(=O)N2CCN(C(c3ccc(F)cc3)c3ccc(F)cc3)CC2)c1 50.1 µM [inhibitor, partial curve, poor fit], O=C1/C(=C\c2cccc([N+](=O)[O-])c2O)SC(=S)N1Cc1ccccc1 44.7 µM [inhibitor, partial curve], COc1ccccc1NC(=O)c1sc2nc3c(c(C(F)(F)F)c2c1N)CN(C(C)=O)CC3 15.8 µM [inhibitor, partial curve], O=C1/C(=C/c2cccs2)SC(=S)N1C1CCS(=O)(=O)C1 (stereo not given) 5.62 µM [inhibitor, partial curve], Cc1ccc(Cl)cc1N1CCN(C(=O)c2cnn(C(C)(C)C)c2C2CCN(C(=O)OC(C)(C)C)CC2)CC1 17.8 µM [inhibitor, partial curve, poor fit], COc1ccc(NC(=O)c2cnc(Nc3ccc(C)c(Cl)c3)c3ccccc23)c(OC)c1 8.91 µM [inhibitor, partial curve, poor fit], O=C(COC(=O)c1ccc(Cl)nc1)NCc1ccco1 35.5 µM [inhibitor, single point], OC(COCC(F)(F)C(F)(F)C(F)(F)C(F)F)Cn1c2ccc(Cl)cc2c2cc(Cl)ccc21 (stereo not given) 50.1 µM [inhibitor, partial curve], O=C(NCCCCc1ccccc1)C12CN(Cc3ccccc3)CC1C(c1ccc([N+](=O)[O-])cc1)=NO2 (stereo not given) 17.8 µM [inhibitor, partial curve, poor fit]
